PubChem BioAssay AID686937 | Drosophila RNAi Screening Center, 2013
The deposit covers about 23,000 reagents; below is an unselected part of those that have a named target and a result. 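Reduced-secretion tags in replicate 1 do not always agree with the z-scores; no criterion for assigning the tags was given.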 Names joined by + are all predicted targets of the reagent. Not stated in the record: the amount of reagent.

Aim: 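Genes in the fly needed for secretion of protein constitutively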 (primary screen)
Cell system: Drosophila S2 cells expressing secreted horseradish peroxidase
Reagents: long dsRNA against Drosophila genes
Time to read-out: about 5.5 days (5 days dsRNA, then 12 h reporter induction)
Challenge: reporter expression induced after 5 days of dsRNA, read 12 h later; inducer not stated
Detection: 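After 5 days of dsRNA and 12 h of reporter induction, medium peroxidase read by chemiluminescence and scored as per-plate z-score; higher values mean more reporter released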
Direction: z-score: higher = more reporter secreted into medium

CG14439 [DRSC17931]: z-score, replicate 1 = 0.23; z-score, replicate 2 = 0.48
mRpS10 [DRSC15557]: z-score, replicate 1 = 0; z-score, replicate 2 = -0.33
Rbsn-5 [DRSC03094]: z-score, replicate 1 = 0.29; z-score, replicate 2 = 0.35
Crz [DRSC16615]: z-score, replicate 1 = 0.29; z-score, replicate 2 = 0.31
hb [DRSC16963]: z-score, replicate 1 = 0.64; z-score, replicate 2 = 0.52
CG13793 [DRSC02297]: z-score, replicate 1 = 0.46; z-score, replicate 2 = 0.08
MFS18 [DRSC00452]: z-score, replicate 1 = 0.25; z-score, replicate 2 = 0.27
Mcad [DRSC09871]: z-score, replicate 1 = 0.56; z-score, replicate 2 = 0.41
Prim2 [DRSC11610]: z-score, replicate 1 = -0.15; z-score, replicate 2 = -0.37
Dh31 [DRSC02196]: z-score, replicate 1 = 0.36; z-score, replicate 2 = 0.38
RhoGAP54D [DRSC06990]: z-score, replicate 1 = -0.36; z-score, replicate 2 = 0.25
NfI [DRSC17158]: z-score, replicate 1 = 0.52; z-score, replicate 2 = 0.53
CG17362 [DRSC10267]: z-score, replicate 1 = 0.05; z-score, replicate 2 = 0.21
lncRNA:CR32027 [DRSC09571]: z-score, replicate 1 = 0.43; z-score, replicate 2 = 0.35
glu [DRSC03539]: z-score, replicate 1 = 0.18; z-score, replicate 2 = 0.03
CG13615 [DRSC14618]: z-score, replicate 1 = 0.22; z-score, replicate 2 = 0.13
IntS4 [DRSC17810]: z-score, replicate 1 = 1.01; z-score, replicate 2 = 0.86
CG13869 + CG11099 [DRSC06428]: z-score, replicate 1 = 0.61; z-score, replicate 2 = 0.51
SelT [DRSC02732]: z-score, replicate 1 = 0.3; z-score, replicate 2 = 0.06
IleRS-m [DRSC10506]: z-score, replicate 1 = 0.1; z-score, replicate 2 = 0.2
Drl-2 [DRSC05393]: z-score, replicate 1 = 0.32; z-score, replicate 2 = 0.16
Drl-2 [DRSC06155]: z-score, replicate 1 = 0.18; z-score, replicate 2 = 0.23
Drl-2 [DRSC06858]: z-score, replicate 1 = -0.57; z-score, replicate 2 = -0.4
CG13040 [DRSC09921]: z-score, replicate 1 = 0.36; z-score, replicate 2 = 0.47
DptA [DRSC07404]: z-score, replicate 1 = 0.26; z-score, replicate 2 = 0.47
Or85b [DRSC16765]: z-score, replicate 1 = 0.47; z-score, replicate 2 = 0.43
CG18063 [DRSC01968]: z-score, replicate 1 = 0.05; z-score, replicate 2 = 0.04

2 of these entries, reformatted:
CG13869 + CG11099 [DRSC06428]
- z-score, replicate 1: 0.61
- z-score, replicate 2: 0.51

SelT [DRSC02732]
- z-score, replicate 1: 0.3
- z-score, replicate 2: 0.06
